Values quoted from earlier work as cited in publication PMC2673089 (Journal of pharmaceutical sciences, 2008).

Target: NET
Details: read-out: NET Ki; mean ± SEM; cited from earlier work

In the case of `CN1[C@@H]2CC[C@H]1C[C@@H](OC(c1ccccc1)c1ccccc1)C2` [BZT, benztropine, reference compound], the Ki is given as 1390 ± 134 nM.
